In patent publication US9040537B2, “Pyridazine compounds for controlling invertebrate pests” (BASF SE, priority 2010, dated 2015):
Some of these results come from one statement about several compounds together.

Columns and labels:
Format in all cases: in vivo
Megoura viciae = experiment: Vetch aphid (Megoura viciae), bean leaf disks in microtiterplates; details: test solution 2500 mg/l; 2.5 μl sprayed on bean leaf disks; 6 days
Myzus persicae [1] = experiment: Green peach aphid (Myzus persicae, mixed life stages), foliar spray on infested bell pepper plants; details: after 5 days
Aphis gossypii = experiment: Cotton aphid (Aphis gossypii, mixed life stages), foliar spray on infested cotton plants; details: after 5 days
Aphis craccivora = experiment: Cowpea aphid (Aphis craccivora), spray on colonized potted cowpea plants; details: 300 ppm; sprayed potted cowpea plants; population reduction assessed after 24, 72 and 120 hours
Myzus persicae [2] = experiment: Green peach aphid (Myzus persicae) through systemic means, artificial diet under membrane in 96-well plates; details: 2500 ppm, 3 days
Bemisia argentifolii = experiment: Silverleaf whitefly (Bemisia argentifolii, adult), sprayed cotton plants; details: 100 ppm, adults, 3 days after treatment

Structure (SMILES)	mortality (Megoura viciae)	mortality in comparison with untreated controls (Aphis craccivora)	mortality in comparison with untreated controls (Myzus persicae [2])	mortality in comparison with untreated controls (Myzus persicae [1]; 300 ppm)	mortality in comparison with untreated controls (Aphis gossypii; 300 ppm)	other results
CC(F)c1ncncc1C(=O)Nc1ccnnc1 (stereo not shown) [Compound 62]	at least 90%	–	–	–	–	–
Cc1ncc(C(=O)N(C)c2ccnnc2)c(C(F)(F)F)n1 [Compound 68]	at least 90%	at least 90%	100%	–	–	mortality in comparison with untreated controls (Myzus persicae [1]; 100 ppm): at least 75%; mortality in comparison with untreated controls (Aphis gossypii; 100 ppm): at least 75%
Cc1nc(C(C)C)ncc1C(=O)N(C)c1ccnnc1 [Compound 70]	at least 90%	–	100%	at least 75%	–	–
CN(C(=O)c1cnccc1C(F)(F)F)c1ccnnc1 [Compound 46]	at least 90%	–	100%	at least 75%	at least 75%	–
CSc1ncc(C(=O)Nc2ccnnc2)c(C)n1 [Compound 60]	at least 90%	at least 90%	100%	at least 75%	–	–
O=C(Nc1ccnnc1)c1cccnc1 [Compound 51]	at least 90%	at least 90%	100%	–	at least 75%	–
O=C(Nc1ccnnc1)c1ccncc1 [Compound 53]	at least 90%	at least 90%	100%	at least 75%	at least 75%	–
CCc1ncc(C(=O)N(C)c2ccnnc2)c(C)n1 [Compound 67]	–	at least 90%	100%	–	–	mortality in comparison with untreated controls (Myzus persicae [1]; 100 ppm): at least 75%; mortality in comparison with untreated controls (Aphis gossypii; 100 ppm): at least 75%
Cc1ncc(C(=O)N(C)c2ccnnc2)c(C(C)F)n1 (stereo not shown) [Compound 65]	at least 90%	at least 90%	–	–	at least 75%	–
CN(C(=O)c1ccncc1)c1ccnnc1 [Compound 52]	–	at least 90%	100%	at least 75%	at least 75%	–
Cc1ncc(C(=O)Nc2ccnnc2)cn1 [Compound 14]	–	at least 90%	–	–	–	mortality in comparison with untreated controls (Aphis gossypii; 100 ppm): at least 75%; mortality in comparison with untreated controls (Bemisia argentifolii): at least 75%
CN(C(=O)c1cncnc1)c1ccnnc1 [Compound 19]	–	at least 90%	100%	–	–	–
O=C(Nc1ccnnc1)c1cncc(Br)c1 [Compound 49]	–	–	100%	–	–	–
COCCc1ncnc(C(=O)Nc2ccnnc2)c1C [Compound 54]	–	at least 90%	100%	–	–	–
CN(C(=O)c1cccnc1)c1ccnnc1 [Compound 45]	at least 90%	at least 90%	–	at least 75%	at least 75%	–
Cc1ncc(C(=O)N(C)c2ccnnc2)cn1 [Compound 15]	–	–	100%	–	–	mortality in comparison with untreated controls (Myzus persicae [1]; 100 ppm): at least 75%; mortality in comparison with untreated controls (Aphis gossypii; 100 ppm): at least 75%
Cc1ncncc1C(=O)Nc1ccnnc1 [Compound 17]	–	at least 90%	–	–	–	mortality in comparison with untreated controls (Myzus persicae [1]; 100 ppm): at least 75%; mortality in comparison with untreated controls (Aphis gossypii; 100 ppm): at least 75%
CN(C(=O)c1ccc([N+](=O)[O-])cn1)c1ccnnc1 [Compound 37]	–	–	–	–	at least 75%	–
Cc1c(C(=O)Nc2ccnnc2)ncnc1C1CC1 [Compound 12]	–	–	–	–	–	mortality in comparison with untreated controls (Bemisia argentifolii): at least 75%

Structure (SMILES)	mortality (Megoura viciae)	mortality in comparison with untreated controls (Aphis craccivora)	mortality in comparison with untreated controls (Myzus persicae [2])	mortality in comparison with untreated controls (Myzus persicae [1]; 300 ppm)	mortality in comparison with untreated controls (Aphis gossypii; 300 ppm)	other results
Cc1c(C(=O)Nc2ccnnc2)ncnc1C(F)(F)F [Compound 16]	at least 90%	at least 90%	–	–	–	–
CN(C(=O)c1ccc(Cl)nc1)c1ccnnc1 [Compound 42]	–	at least 90%	–	at least 75%	at least 75%	–
CCc1ncnc(C(=O)Nc2ccnnc2)c1C [Compound 32]	–	at least 90%	100%	–	at least 75%	–
CCc1ncnc(C(=O)N(C)c2ccnnc2)c1C [Compound 31]	–	–	100%	–	at least 75%	–
Cc1ncncc1C(=O)N(C)c1ccnnc1 [Compound 24]	at least 90%	at least 90%	100%	at least 75%	at least 75%	–
CSc1ncc(C(=O)N(C)c2ccnnc2)c(C)n1 [Compound 61]	–	–	100%	at least 75%	–	–
Cc1nc(C(C)(C)C)ncc1C(=O)N(C)c1ccnnc1 [Compound 72]	at least 90%	–	–	–	–	–
Cc1ncnc(C(=O)N(C)c2ccnnc2)c1C [Compound 30]	–	at least 90%	100%	–	at least 75%	–
CN(C(=O)c1ccnc(C(F)(F)F)n1)c1ccnnc1 [Compound 29]	–	–	100%	–	–	–
CSc1ncc(C(=O)Nc2ccnnc2)cn1 [Compound 6]	–	at least 90%	–	–	–	–
COCCc1ncc(C(=O)N(C)c2ccnnc2)c(C)n1 [Compound 25]	–	at least 90%	–	–	–	mortality in comparison with untreated controls (Myzus persicae [1]; 100 ppm): at least 75%; mortality in comparison with untreated controls (Aphis gossypii; 100 ppm): at least 75%
O=C(Nc1ccnnc1)c1ncccn1 [Compound 34]	–	–	100%	–	–	–
CN(C(=O)c1cccnc1Cl)c1ccnnc1 [Compound 43]	at least 90%	–	–	at least 75%	at least 75%	–
O=C(Nc1ccnnc1)c1ccc(Cl)nc1 [Compound 47]	–	at least 90%	–	–	–	–
Cc1nc(C(C)C)ncc1C(=O)Nc1ccnnc1 [Compound 69]	at least 90%	at least 90%	100%	–	–	–
CN(C(=O)c1cncc(Br)c1)c1ccnnc1 [Compound 44]	at least 90%	at least 90%	–	at least 75%	at least 75%	–
O=C(Nc1ccnnc1)c1cncnc1 [Compound 18]	–	at least 90%	100%	–	–	–
Cc1c(C(=O)N(C)c2ccnnc2)ncnc1C1CC1 [Compound 13]	–	–	–	at least 75%	–	–
Cc1ncnc(C(=O)Nc2ccnnc2)c1C [Compound 33]	–	at least 90%	–	–	at least 75%	–
